Molecular target: T1, TvaCA1 (Trichomonas vaginalis, UniProt A2ENQ8)
T1 construct: gene TVAG_005270; recombinant from E. coli BL21 Star (DE3), Ni2+-NTA purified; beta-CA homodimer with two active sites
T1 sequence (A2ENQ8 1-182): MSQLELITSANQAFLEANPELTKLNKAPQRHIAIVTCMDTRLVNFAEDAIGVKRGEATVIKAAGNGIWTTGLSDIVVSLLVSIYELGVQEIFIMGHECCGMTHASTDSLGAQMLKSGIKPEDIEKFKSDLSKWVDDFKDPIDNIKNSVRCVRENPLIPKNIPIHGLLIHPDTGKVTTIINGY
Assay: stopped-flow CO2 hydrase assay
Assay type: biochemical
Conditions: read-out: KI^a (nM) / TvaCA1^c

Which Ki does the source give for `CCN[C@H]1C[C@H](C)S(=O)(=O)c2sc(S(N)(=O)=O)cc21` [DZA, Dorzolamide] here?
Its Ki is greater than 50000 nM.
